From US20240294670A1 come the findings set out here.

The chains behind the UniProt entries cited, without tags or fusion partners. Residues count along the entry.
UniProt P36222, residues 22-383: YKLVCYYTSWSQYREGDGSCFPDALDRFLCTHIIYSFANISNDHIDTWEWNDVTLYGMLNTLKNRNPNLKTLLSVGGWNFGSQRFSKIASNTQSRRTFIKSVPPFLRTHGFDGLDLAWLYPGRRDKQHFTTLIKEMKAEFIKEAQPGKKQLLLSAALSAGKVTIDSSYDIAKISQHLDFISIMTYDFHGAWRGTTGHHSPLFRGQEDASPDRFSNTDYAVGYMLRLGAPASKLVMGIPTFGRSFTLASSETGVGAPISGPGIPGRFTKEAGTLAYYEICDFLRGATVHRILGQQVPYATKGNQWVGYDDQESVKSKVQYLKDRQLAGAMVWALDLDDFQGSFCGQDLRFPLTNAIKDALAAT

Results are given in words; binding and its absence hold for the method and conditions named. Some results given as binding are weak or reduced against the parent protein; the word gives no strength.

The assay has as its target recombinant human CHI3L1 (human) (UniProt P36222). Put plainly: Bio-Layer Interferometry. (In general: Biolayer interferometry detects binding as a change in optical thickness at a sensor tip.)

B1: humanized C7 antibody C7Hu (antibody, V domains shown)
VH: QVQLVESGGGVVQPGRSLRLSCAASGFTLTTYWVCWVRQAPGKGLEWVACIDAGSITYYTTWARGRFTISRDNSTNTLFLQMNSLRAEDTAVYYCARDAHYTYALVLWGRGTLVTVSS
VL: DIQMTQSPSSVSASVGDRVTIKCQASEDIESYLAWYQQKPGKAPKLLIYDASDLASGVPSRFSGSGSGTDFTLTISSLQPEDAATYYCQGYSYGSSYVGFGGGTKVEIK
For B1, the binding entry was “binds”.
